# Measured values as given in PubChem BioAssay AID2685 (National Center for Advancing Translational Sciences (NCATS), 2010).
# The list shows a part of the results. The main result of the screen is listed elsewhere. These columns were measured beside it and carry no call. Most of these compounds were active or inconclusive in the main read-out, so they are no random draw. Potencies come from curve fits of mixed quality, noted in brackets.
# Experiment: qHTS Assay for Lipid Storage Modulators in Drosophila S3 Cells;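 for cell number change: cells counted by Cell Tracker Red CMTPX staining in the red channel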
# Conditions: BODIPY lipid droplet fluorescence, 18-24 h; for cell number change: measured here: cell count max response, cells fed with added oleic acid
# In short: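 Drosophila S3 cells got compounds at several concentrations plus oleic acid (400 uM solution). Laser-scanning cytometry with 488 nm excitation read lipid droplets at 500-530 nm and cells at 575-640 nm. Percent activity was relative to 20 uM Triacsin C.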
# [1] = measured here: cell number channel AC50, cells fed with added oleic acid
# [2] = measured here: lipid fluorescence (Fed channel) AC50, cells fed with added oleic acid
SMILES,AC50 [1],cell number change [%],AC50 [2]
CC(=O)Nc1ccc(S(=O)(=O)Nc2nc3ccccc3nc2-n2ccc(=NC(=O)c3ccc(F)cc3)cc2)cc1,"0.58 µM [rising, single point]",–,–
CCOC(=O)c1ccsc1NC(=O)CCS(=O)(=O)c1ccccc1,"14.6 µM [falling, single point]",-42.1,"29.1 µM [falling, single point]"
CC(C)COP(=O)(c1ccc(N(C)C)cc1)C(O)c1ccccc1F (stereo not drawn),–,30.3,"6.51 µM [rising, full curve]"
Cc1ccnc(N2C(=O)CSC2c2ccc(Cl)cc2)c1 (stereo not drawn),"6.51 µM [rising, single point]",2.22,–
COc1ccc(Cc2nnc(Nc3ccc(Cl)cc3)[nH]c2=O)cc1,"0.058 µM [rising, full curve, poor fit]",20,"0.82 µM [rising, full curve, poor fit]"
CNC(=O)CSCCn1c(SCC(=O)NC)nc2ccccc2c1=O,–,3.01,–
CC(=O)c1cccc(NC(=O)c2ccc(NC(=O)CC3SC(N4CCCCC4)=NC3=O)cc2)c1 (stereo not drawn),–,2.47,–
CCN(C(=O)COC(=O)/C=C/c1ccccc1Cl)c1c(N)n(Cc2ccccc2)c(=O)[nH]c1=O,"16.4 µM [rising, single point]",111,–
COc1ccc2nc(C3CCCCC3)nc(C3CCCCC3)c2c1,–,3.83,"0.731 µM [rising, full curve, poor fit]"
CCOC(=O)c1cc(=O)cc(C(=O)OCC)o1,"6.51 µM [falling, partial curve]",-33.8,"6.51 µM [falling, partial curve]"
Cc1ccc(S(=O)(=O)NC2=NCN(CCN3CCOCC3)CN2)cc1,–,-13,"2.59 µM [falling, partial curve, poor fit]"
O=C(OCC(=O)N1CCN(c2ccccc2)CC1)c1ccc2ncsc2c1,–,-1.44,"4.61 µM [rising, single point]"
CC(C(=O)Nc1ccc(F)cc1Cl)N1CCN(S(=O)(=O)c2cccs2)CC1 (stereo not drawn),"23.1 µM [rising, single point]",34.8,"9.2 µM [rising, partial curve, poor fit]"
NC(=O)C1CCN(C(=O)CSc2ncccn2)CC1,"0.326 µM [rising, full curve, poor fit]",13.7,–
Cn1nnnc1SCC(=O)N(C1CCCCC1)C1CCS(=O)(=O)C1 (stereo not drawn),–,-8.29,–
CCC1(c2ccccc2)ON(c2c(Br)cccc2Br)C1=O (stereo not drawn),"13 µM [falling, partial curve]",-53.7,"11.6 µM [falling, partial curve]"
Nc1nnc(SCC(=O)Nc2nccs2)s1,–,-19.4,"29.1 µM [rising, partial curve, poor fit]"
O=C(Cn1c(=O)n(Cc2ccco2)c(=O)c2c3c(sc21)CCCC3)Nc1ccccc1,"0.231 µM [rising, full curve, poor fit]",–,"0.58 µM [rising, single point]"
CN(c1ccccc1)c1nc(N)c([N+](=O)[O-])c(NCc2ccccc2)n1,"0.731 µM [rising, full curve, poor fit]",14.2,"0.092 µM [rising, full curve, poor fit]"

# Rewritten as tab-separated lines: entries from further up.
SMILES	AC50 [1]	cell number change [%]	AC50 [2]
CNC(=O)CSCCn1c(SCC(=O)NC)nc2ccccc2c1=O	–	3.01	–
Cc1ccc(S(=O)(=O)NC2=NCN(CCN3CCOCC3)CN2)cc1	–	-13	2.59 µM [falling, partial curve, poor fit]
NC(=O)C1CCN(C(=O)CSc2ncccn2)CC1	0.326 µM [rising, full curve, poor fit]	13.7	–
Nc1nnc(SCC(=O)Nc2nccs2)s1	–	-19.4	29.1 µM [rising, partial curve, poor fit]

# Continued:

SMILES,AC50 [1],cell number change [%],AC50 [2]
O=C(Nc1nnc(SCc2cccnc2)s1)C1CC(=O)N(c2ccc(F)cc2)C1 (stereo not drawn),–,15,"18.4 µM [rising, single point]"
O=c1c(-c2ccc(O)cc2)coc2c(C3O[C@H](CO)[C@@H](O)[C@H](O)[C@H]3O)c(O)ccc12 (stereo partly drawn),"0.00517 µM [falling, full curve, poor fit]",-29.3,"7.31 µM [falling, partial curve, poor fit]"
COc1cc(C(=O)NCC(=O)NCCCSc2ccccc2)cc(OC)c1OC,–,1.69,"0.00461 µM [rising, full curve, poor fit]"
O=C(/C=C/c1ccccc1)N1CCN(c2cccc(Cl)n2)CC1,–,18.8,"29.1 µM [rising, single point]"
O=C(Cc1cccc2ccccc12)Nc1ccc(O)cc1C(=O)O,–,4.97,"0.651 µM [rising, partial curve, poor fit]"
Oc1ccc(-c2csc(Nc3ncccn3)n2)c(O)c1,–,-14.3,"14.6 µM [falling, single point]"
COc1ccc(OC)c(-n2nnnc2SCC(=O)NCCc2ccccc2)c1,"0.731 µM [falling, single point]",-7.08,"29.1 µM [rising, single point]"
Cc1nn(C)c(C)c1S(=O)(=O)N1CCCC(C(=O)N2CCN(c3ccccc3)CC2)C1 (stereo not drawn),"8.2 µM [falling, full curve, poor fit]",-34.8,"0.00411 µM [rising, full curve, poor fit]"
COCCn1c(=O)[nH]c(=O)c2c1nc(-c1cc(Br)c3c(c1)OCO3)n2Cc1ccccc1,–,21.8,–
CC(C)CC1Nc2ncnc(N3CCCCC3)c2N(Cc2ccccc2)C1=O (stereo not drawn),–,-10.5,–
COc1ccc(S(=O)(=O)NC2CC(=O)N(c3ccc(C)c(C)c3)C2)cc1 (stereo not drawn),"2.31 µM [rising, single point]",–,–
COc1cccc(OC)c1C(=O)Nc1ccc(Cc2ccncc2)cc1,–,14.7,"1.64 µM [rising, partial curve, poor fit]"
CCOC(=O)/C=C/C(=O)OCC(=O)N1CCN(C(=O)c2ccco2)CC1,"13 µM [falling, partial curve]",-48.9,"5.8 µM [falling, full curve]"
CCOC(=O)CSC1=C(C#N)C(c2ccco2)C(C(=O)OCc2ccccc2)=C(C)N1 (stereo not drawn),–,-23.5,"29.1 µM [falling, partial curve, poor fit]"
CC(=O)c1c(COC(=O)c2cccnc2)nc2ccccc2[n+]1[O-],–,12.6,"0.00461 µM [rising, full curve, poor fit]"
O=C(CSC(=S)N1CCN(c2ccccc2)CC1)Nc1nc(-c2ccccc2)c(-c2ccccc2)o1,"32.6 µM [falling, single point]",-33.3,"0.231 µM [falling, full curve]"
O=C(O)CNC(=O)c1ccc(N2CCOCC2)cc1[N+](=O)[O-],"4.11 µM [falling, full curve]",-48.8,–
CCN(C(=O)COc1ccc(C)nc1[N+](=O)[O-])C1CCS(=O)(=O)C1 (stereo not drawn),"29.1 µM [rising, partial curve, poor fit]",54.3,"23.1 µM [rising, single point]"
COc1cccc(CNS(=O)(=O)c2ccc3c(c2)oc(=O)n3C)c1,–,20.5,–

SMILES,AC50 [1],cell number change [%],AC50 [2]
O=C(NC1CCSc2ccccc21)c1ccc(Cl)c(S(=O)(=O)N2CCOCC2)c1 (stereo not drawn),–,29.9,"4.61 µM [rising, single point]"
NC(=O)c1ccccc1NC(=O)CN1CCN(Cc2ccc(Cl)cc2Cl)CC1,"4.61 µM [rising, single point]",16.4,–
Cc1nnc(SCc2nnc(-c3ccc(Cl)cc3)o2)n1-c1ccccc1,–,-19.9,–
C/C(=N\NC(=O)C(=O)Nc1ccc(C)cc1)c1ccncc1,–,5.04,–
O=C(CSc1nc(NS(=O)(=O)c2ccccc2)cc(=O)[nH]1)Nc1ccccc1C(F)(F)F,"0.58 µM [rising, full curve, poor fit]",36.3,–
OCC1(CCOc2ccccc2)CCN(Cc2cc(Cl)ccc2O)CC1,–,6.99,–
Cc1ncoc1C(=O)Nc1ccc(Oc2ccccc2)cc1,–,–,"0.517 µM [falling, single point]"
COc1ccc(S(=O)(=O)N2CCN(C(=O)CC3CC4CCC3C4)CC2)cc1 (stereo not drawn),"0.82 µM [falling, single point]",-3.86,"0.00461 µM [falling, full curve, poor fit]"
COc1ccc(CSC2=CS(=O)(=O)c3ccccc3N2)cc1,–,-44.1,–
CC1(C)C(N(O)C(=O)Nc2ccc(Cl)cc2)N(c2ccc(Cl)cc2)C(=O)N1CC(=O)NN (stereo not drawn),"1.16 µM [falling, partial curve, poor fit]",-18.7,–
Cc1ccc(C(=O)O/N=C/c2c(C)nn(C)c2Cl)cc1,–,-35,–
CCOC(=O)c1sc(/N=C/Nc2nc(C)c(C(=O)OCC)s2)nc1C,–,28.6,"0.116 µM [falling, full curve, poor fit]"
C[C@@]12CCC3[C@@](CCC4[C@@]3(C)CCC[C@@]4(C)C(=O)N3CCCCC3)(CC1=O)C2 (stereo partly drawn),–,18.2,"25.9 µM [rising, single point]"
C/C(=N/NC(=O)C1CCCN1C(=O)c1ccc([N+](=O)[O-])cc1)c1ccc(Br)cc1 (stereo not drawn),–,-23.2,"3.66 µM [rising, partial curve]"
CC(=O)CCN1CCOCC1,–,-103,–
CCOc1ccc(S(=O)(=O)Nc2cccc(C(=O)NCC(c3ccco3)N3CCCC3)c2)cc1 (stereo not drawn),–,-5.57,–
COc1ccc(C2C(C(C)=O)=C(C)Nc3ncnn32)cc1 (stereo not drawn),–,39.9,"29.1 µM [rising, single point]"
CC1(C)OC(c2ccccc2)=C/C(=C/C=C2C(=O)c3ccccc3C2=O)O1,"1.46 µM [falling, full curve]",-40.5,"1.03 µM [falling, full curve]"
CC(Oc1ccccc1)c1ccnc(N)n1 (stereo not drawn),"0.116 µM [falling, full curve, poor fit]",-6.43,"0.13 µM [falling, full curve, poor fit]"
